The supplement of paper PMC10849652
The other results are listed elsewhere or left out.

Protein sequences, listed by entry. Tags and fused reporters are not part of them. Lines headed by an entry give the natural chain unless they say otherwise; changes in a name come on top.
UniProt Q96K21: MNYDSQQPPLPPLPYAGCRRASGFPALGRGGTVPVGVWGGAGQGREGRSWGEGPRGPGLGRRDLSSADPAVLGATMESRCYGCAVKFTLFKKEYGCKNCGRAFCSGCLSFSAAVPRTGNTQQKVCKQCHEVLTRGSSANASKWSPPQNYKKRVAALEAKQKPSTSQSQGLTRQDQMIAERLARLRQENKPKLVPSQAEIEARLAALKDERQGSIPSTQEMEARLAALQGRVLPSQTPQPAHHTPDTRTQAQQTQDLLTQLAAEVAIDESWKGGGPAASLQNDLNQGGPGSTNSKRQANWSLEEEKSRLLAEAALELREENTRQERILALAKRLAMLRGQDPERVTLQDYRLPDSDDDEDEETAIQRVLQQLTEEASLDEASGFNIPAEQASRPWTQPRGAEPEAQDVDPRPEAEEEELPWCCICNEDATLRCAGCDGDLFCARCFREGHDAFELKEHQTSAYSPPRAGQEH
UniProt O76080: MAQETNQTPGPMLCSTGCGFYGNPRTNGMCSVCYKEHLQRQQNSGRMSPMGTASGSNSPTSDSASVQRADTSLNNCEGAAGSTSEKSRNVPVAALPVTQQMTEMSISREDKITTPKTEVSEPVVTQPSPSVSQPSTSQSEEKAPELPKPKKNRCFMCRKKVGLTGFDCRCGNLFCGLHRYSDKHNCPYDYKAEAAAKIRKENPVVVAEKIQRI
UniProt P49750: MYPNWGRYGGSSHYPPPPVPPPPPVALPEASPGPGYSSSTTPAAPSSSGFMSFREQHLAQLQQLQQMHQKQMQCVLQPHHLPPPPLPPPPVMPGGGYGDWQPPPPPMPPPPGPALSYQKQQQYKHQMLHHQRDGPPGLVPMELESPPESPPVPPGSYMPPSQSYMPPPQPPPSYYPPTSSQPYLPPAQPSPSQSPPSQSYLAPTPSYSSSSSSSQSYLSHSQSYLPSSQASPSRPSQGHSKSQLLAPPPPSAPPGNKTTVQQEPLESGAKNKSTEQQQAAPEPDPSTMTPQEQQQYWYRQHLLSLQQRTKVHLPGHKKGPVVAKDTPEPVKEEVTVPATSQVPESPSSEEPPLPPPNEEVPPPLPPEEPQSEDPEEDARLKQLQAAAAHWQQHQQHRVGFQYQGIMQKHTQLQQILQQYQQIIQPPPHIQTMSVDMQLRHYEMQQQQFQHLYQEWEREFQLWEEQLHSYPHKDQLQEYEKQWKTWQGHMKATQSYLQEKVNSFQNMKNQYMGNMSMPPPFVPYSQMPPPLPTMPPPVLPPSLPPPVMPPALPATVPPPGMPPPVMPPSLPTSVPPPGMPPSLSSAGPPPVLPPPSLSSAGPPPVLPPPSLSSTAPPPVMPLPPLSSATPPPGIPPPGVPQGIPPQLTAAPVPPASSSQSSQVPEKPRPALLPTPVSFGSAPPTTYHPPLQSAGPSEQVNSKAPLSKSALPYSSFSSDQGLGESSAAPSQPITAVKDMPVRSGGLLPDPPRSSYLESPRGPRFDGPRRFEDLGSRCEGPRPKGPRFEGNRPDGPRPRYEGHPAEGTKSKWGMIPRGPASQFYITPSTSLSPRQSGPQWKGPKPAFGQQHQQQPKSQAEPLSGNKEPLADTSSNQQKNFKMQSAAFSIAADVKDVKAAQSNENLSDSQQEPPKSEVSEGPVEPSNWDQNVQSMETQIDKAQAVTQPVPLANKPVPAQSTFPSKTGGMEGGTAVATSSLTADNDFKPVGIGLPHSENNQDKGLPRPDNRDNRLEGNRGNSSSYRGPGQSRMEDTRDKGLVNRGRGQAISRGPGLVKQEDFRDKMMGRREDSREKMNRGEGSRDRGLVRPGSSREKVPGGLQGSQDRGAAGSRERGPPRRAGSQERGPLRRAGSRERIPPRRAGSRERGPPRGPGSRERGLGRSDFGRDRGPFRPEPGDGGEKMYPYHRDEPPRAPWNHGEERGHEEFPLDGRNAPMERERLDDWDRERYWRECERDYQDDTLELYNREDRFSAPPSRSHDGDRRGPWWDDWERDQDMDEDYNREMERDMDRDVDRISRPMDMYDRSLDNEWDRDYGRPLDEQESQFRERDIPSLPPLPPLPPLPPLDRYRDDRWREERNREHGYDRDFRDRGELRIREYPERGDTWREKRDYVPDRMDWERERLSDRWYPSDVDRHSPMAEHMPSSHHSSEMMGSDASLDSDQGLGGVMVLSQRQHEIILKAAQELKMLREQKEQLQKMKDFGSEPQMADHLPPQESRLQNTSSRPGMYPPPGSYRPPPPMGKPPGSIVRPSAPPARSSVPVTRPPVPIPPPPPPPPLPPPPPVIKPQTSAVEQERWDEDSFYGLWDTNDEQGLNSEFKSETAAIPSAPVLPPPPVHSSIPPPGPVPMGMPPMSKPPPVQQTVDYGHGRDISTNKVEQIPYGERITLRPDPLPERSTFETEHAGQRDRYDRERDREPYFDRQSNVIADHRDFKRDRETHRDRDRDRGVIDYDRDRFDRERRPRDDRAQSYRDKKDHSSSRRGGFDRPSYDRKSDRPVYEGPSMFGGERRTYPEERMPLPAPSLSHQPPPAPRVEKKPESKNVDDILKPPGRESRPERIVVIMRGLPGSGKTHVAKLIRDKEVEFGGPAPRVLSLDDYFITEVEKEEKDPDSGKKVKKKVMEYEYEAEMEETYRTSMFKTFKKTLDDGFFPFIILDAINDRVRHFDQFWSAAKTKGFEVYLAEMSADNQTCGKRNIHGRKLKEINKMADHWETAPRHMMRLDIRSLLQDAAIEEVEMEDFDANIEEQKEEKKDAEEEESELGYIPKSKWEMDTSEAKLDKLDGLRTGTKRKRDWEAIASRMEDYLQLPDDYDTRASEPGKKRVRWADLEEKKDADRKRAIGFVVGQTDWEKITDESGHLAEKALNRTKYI
UniProt Q9UBH6: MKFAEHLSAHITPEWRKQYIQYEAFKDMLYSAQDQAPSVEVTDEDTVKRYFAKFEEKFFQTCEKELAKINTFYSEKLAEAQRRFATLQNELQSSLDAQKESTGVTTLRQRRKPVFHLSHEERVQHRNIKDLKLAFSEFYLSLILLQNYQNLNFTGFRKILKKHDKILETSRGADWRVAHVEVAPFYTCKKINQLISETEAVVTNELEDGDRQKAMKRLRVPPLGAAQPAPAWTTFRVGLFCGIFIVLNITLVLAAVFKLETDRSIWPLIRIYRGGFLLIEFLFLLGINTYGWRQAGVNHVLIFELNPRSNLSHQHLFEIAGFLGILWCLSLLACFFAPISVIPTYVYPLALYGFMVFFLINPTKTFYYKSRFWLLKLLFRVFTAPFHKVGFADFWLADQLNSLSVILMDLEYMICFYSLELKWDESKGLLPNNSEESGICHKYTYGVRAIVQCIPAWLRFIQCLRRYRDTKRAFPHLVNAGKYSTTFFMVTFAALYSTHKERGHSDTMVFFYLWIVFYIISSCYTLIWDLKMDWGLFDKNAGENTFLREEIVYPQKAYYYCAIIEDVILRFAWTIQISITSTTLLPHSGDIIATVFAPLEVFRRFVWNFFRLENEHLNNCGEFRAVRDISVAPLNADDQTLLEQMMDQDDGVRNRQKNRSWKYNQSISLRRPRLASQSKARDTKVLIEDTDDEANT
UniProt Q96DA0: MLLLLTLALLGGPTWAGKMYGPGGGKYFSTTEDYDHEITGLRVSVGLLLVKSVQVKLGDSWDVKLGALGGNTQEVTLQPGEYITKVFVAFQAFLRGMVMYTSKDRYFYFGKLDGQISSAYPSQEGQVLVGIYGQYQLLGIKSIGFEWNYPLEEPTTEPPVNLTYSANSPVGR
UniProt Q8IWT0: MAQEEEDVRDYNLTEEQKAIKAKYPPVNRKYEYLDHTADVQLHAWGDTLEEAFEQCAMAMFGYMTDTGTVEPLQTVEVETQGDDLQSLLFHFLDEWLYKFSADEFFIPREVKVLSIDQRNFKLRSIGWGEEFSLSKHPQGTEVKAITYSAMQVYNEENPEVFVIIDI
UniProt O60315: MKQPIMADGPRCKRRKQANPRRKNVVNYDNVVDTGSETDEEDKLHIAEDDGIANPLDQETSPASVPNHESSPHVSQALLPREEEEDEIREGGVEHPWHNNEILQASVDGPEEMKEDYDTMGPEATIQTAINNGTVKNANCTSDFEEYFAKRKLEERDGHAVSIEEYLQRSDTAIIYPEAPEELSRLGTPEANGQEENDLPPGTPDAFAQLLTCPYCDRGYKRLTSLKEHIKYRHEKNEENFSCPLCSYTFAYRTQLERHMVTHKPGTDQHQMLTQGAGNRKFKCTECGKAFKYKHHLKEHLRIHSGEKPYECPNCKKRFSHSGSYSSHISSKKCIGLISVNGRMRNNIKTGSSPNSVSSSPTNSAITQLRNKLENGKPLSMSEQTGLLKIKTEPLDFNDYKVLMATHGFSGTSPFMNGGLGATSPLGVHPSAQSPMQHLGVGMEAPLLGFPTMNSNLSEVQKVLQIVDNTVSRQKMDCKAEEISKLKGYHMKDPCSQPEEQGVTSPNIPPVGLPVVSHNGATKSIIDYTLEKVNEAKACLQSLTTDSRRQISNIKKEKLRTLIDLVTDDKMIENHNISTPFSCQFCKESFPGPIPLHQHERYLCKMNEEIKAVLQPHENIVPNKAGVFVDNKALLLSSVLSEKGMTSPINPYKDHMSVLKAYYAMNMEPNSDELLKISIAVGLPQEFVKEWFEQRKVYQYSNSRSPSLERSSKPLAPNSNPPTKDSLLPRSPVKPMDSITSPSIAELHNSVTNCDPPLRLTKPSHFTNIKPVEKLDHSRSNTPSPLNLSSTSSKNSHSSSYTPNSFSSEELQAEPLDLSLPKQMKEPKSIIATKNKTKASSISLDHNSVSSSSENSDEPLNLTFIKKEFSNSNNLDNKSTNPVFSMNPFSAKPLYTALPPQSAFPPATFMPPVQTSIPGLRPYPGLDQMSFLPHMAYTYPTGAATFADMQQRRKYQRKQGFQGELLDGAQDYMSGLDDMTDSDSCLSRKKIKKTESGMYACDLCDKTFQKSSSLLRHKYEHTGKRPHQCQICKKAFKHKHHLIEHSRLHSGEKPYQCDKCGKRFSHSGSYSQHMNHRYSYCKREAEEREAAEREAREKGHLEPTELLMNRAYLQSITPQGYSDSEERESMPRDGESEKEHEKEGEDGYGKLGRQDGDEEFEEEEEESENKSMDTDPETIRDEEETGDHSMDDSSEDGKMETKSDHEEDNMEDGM
UniProt Q9Y2T7, whole entry, looked up: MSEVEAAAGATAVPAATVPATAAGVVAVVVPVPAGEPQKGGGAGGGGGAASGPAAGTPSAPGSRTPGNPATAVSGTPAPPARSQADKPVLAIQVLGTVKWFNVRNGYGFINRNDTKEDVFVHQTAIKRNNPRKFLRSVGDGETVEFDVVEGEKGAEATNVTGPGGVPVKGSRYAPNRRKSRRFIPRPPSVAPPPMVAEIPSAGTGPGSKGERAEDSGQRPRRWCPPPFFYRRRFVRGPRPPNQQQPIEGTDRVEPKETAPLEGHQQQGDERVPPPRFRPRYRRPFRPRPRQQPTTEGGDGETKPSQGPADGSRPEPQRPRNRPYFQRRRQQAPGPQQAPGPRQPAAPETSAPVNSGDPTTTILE
UniProt Q9Y548: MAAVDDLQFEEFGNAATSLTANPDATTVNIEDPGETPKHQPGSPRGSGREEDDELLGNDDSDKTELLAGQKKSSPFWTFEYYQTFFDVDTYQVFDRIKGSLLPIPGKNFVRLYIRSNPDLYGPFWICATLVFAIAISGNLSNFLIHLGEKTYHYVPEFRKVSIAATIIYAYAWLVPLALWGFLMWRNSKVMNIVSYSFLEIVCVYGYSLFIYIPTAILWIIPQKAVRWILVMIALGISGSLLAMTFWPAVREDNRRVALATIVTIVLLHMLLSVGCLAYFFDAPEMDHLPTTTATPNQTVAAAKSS
UniProt Q8TBK6: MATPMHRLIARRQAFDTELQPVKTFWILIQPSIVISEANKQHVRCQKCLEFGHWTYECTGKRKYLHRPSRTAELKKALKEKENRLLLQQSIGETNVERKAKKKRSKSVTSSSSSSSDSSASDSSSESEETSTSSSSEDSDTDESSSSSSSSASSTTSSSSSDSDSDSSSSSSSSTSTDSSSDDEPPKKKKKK
UniProt O15156: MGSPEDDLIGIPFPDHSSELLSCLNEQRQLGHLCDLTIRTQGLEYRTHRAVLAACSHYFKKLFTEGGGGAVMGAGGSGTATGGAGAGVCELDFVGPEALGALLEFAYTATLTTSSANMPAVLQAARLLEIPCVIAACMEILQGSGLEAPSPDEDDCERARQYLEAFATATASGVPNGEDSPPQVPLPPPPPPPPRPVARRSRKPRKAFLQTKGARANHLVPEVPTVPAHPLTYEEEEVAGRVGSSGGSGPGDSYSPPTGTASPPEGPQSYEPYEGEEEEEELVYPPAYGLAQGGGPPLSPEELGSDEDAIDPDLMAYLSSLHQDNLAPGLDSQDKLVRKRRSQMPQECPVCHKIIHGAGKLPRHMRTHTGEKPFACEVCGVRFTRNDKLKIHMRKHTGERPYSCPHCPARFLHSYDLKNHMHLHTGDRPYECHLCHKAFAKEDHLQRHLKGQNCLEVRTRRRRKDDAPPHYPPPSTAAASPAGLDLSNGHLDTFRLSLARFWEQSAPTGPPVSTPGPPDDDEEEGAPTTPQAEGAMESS

Columns and labels:
Assay in all cases: log2 fold change, soluble protein after heating vs DMSO (PISA); higher = thermal stabilisation; K562 lysate, 10 uM; active = over 0.2 and 3.5 SD of the protein, either way, in both replicates (recomputed)
erlotinib = compound: C#Cc1cccc(Nc2ncnc3cc(OCCOC)c(OCCOC)cc23)c1 [erlotinib]
Procedure, shortened: (§1)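 K562 pellets were dounce-homogenised in PBS pH 7.4 containing 1 mM MgCl2, and the crude extract, at 1 mg/mL protein, was exposed to 10 μM compound for 30 min. Aliquots were heated for 3 min across 48°C-58°C, pooled, brought to 0.5% NP-40 at 4°C and spun at 21,000xg for 90 min, with the supernatant taken as soluble protein. TMTpro 16plex LC-MS/MS with equalised channel sums quantified that protein. Values are log-two fold changes in thermal stability relative to solvent controls, taken from duplicates.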

[1] = compound: C/C(=N\NC(=O)C1=CC(=CC=C1)S(=O)(=O)N2CCOCC2)/C3=C(C=CC(=C3)Cl)O
Procedure, shortened: as §1

[2] = compound: C1=CC(=CC=C1C2=NC3=C(N2)C=C(C=C3)C(=O)N)OC4=CC=C(C=C4)Cl
Procedure, shortened: as §1

[3] = compound: C1=CC2=C(C=CC(=C2)/C=C\3/C(=O)NC(=NCC4=CC=CS4)S3)N=C1
Procedure, shortened: as §1

[4] = compound: C1=CC2=NC=CN=C2C=C1/C=C/3\C(=O)NC(=O)S3
Procedure, shortened: as §1

[5] = compound: C1=CC=C(C=C1)C2=NC(=C(N2)C3=CC=NC=C3)C4=CC(=C(C=C4)Cl)O
Procedure, shortened: as §1

[6] = compound: C1=CC=C2C(=C1)C3=NNC4=CC=CC(=C43)C2=O
Procedure, shortened: as §1

[7] = compound: C1CCN(C1)C(=O)NC2=CC=CC(=C2)NC3=NC=C(C(=N3)NCCC4=CN=CN4)Br
Procedure, shortened: as §1

[8] = compound: C1CN(CCC1(CC2=CC=C(C=C2)Cl)N)C3=NC=NC4=C3C=CN4
Procedure, shortened: as §1

IRAK-1-4 Inhibitor I = compound: C1COCCN1CCN2C3=CC=CC=C3N=C2NC(=O)C4=CC(=CC=C4)[N+](=O)[O-] [IRAK-1-4 Inhibitor I]
Procedure, shortened: as §1

Measured: log2 fold change

YOD1 (UniProt Q5VVQ6)
inactive: erlotinib 0.026 | [1] 0.024 | [2] -0.015 | [3] 0.001 | [4] -0.029 | [5] -0.026 | [6] 0.021 | [7] -0.049 | [8] 0.009 | IRAK-1-4 Inhibitor I 0.001

XRCC3 (UniProt O43542)
inactive: erlotinib 0.064 | [1] -0.128 | [2] 0.08 | [3] -0.025 | [4] -0.05 | [5] 0.009 | [6] -0.033 | IRAK-1-4 Inhibitor I 0.028

ZFPM2 (UniProt Q8WW38)
inactive: erlotinib -0.064 | [1] 0.031 | [2] 0.028 | [3] -0.095 | [4] -0.258 | [6] 0.006 | [7] 0.023 | [8] -0.056

ZFP91 (UniProt Q96JP5)
inactive: erlotinib -0.054 | [1] -0.169 | [2] 0.006 | [3] 0.064 | [4] 0.004 | [5] -0.028 | [6] 0.077 | [7] 0 | [8] -0.004 | IRAK-1-4 Inhibitor I 0.025

ZBTB40 (UniProt Q9NUA8)
inactive: erlotinib -0.044 | [1] -0.019 | [2] -0.014 | [3] -0.075 | [5] -0.045 | [6] -0.017 | IRAK-1-4 Inhibitor I -0.048

ZFYVE19 (UniProt Q96K21)
inactive: erlotinib -0.017 | [1] -0.056 | [2] 0.016 | [3] -0.024 | [4] -0.026 | [5] 0.055 | [6] 0.007 | [7] -0.031 | [8] 0.012 | IRAK-1-4 Inhibitor I -0.027

ZFAND5 (UniProt O76080)
inactive: erlotinib -0.079 | [1] -0.048 | [2] -0.054 | [3] -0.009 | [4] -0.003 | [5] 0.032 | [6] 0.002 | IRAK-1-4 Inhibitor I -0.012

ZADH2 (UniProt Q8N4Q0)
inactive: erlotinib 0.017 | [1] 0.25 | [2] -0.024 | [3] 0.015 | [4] 0.083 | [5] 0.019 | [6] -0.036 | IRAK-1-4 Inhibitor I 0.026

ZBTB1 (UniProt Q9Y2K1)
inactive: erlotinib -0.073 | [2] -0.165 | [4] 0.053 | [5] 0.033 | [7] 0.04 | [8] -0.022 | IRAK-1-4 Inhibitor I 0.004

ZBTB24 (UniProt O43167)
inactive: erlotinib 0.037 | [2] -0.023 | [4] -0.172 | [5] -0.072 | [7] 0.088 | [8] -0.144 | IRAK-1-4 Inhibitor I 0.09

ZBTB17 isoform 2 (UniProt Q13105)
inactive: erlotinib -0.125 | [2] -0.047 | [4] -0.023

YLPM1 (UniProt P49750)
inactive: erlotinib 0.026 | [1] -0.04 | [2] 0.035 | [3] -0.043 | [4] -0.018 | [5] -0.004 | [6] 0.022 | [7] 0.044 | [8] 0.019 | IRAK-1-4 Inhibitor I 0.027

ZBTB5 (UniProt O15062)
inactive: erlotinib 0.037 | [1] 0.076 | [2] 0.046 | [3] -0.078 | [5] -0.021 | [6] 0.238 | [7] 0.08 | [8] -0.144 | IRAK-1-4 Inhibitor I -0.04

XPR1 (UniProt Q9UBH6)
inactive: erlotinib 0.043 | [1] 0.049 | [2] 0.019 | [3] 0.081 | [4] -0.051 | [5] 0.049 | [6] 0.014 | [7] -0.042 | [8] -0.024 | IRAK-1-4 Inhibitor I 0.012

ZDHHC13 (UniProt Q8IUH4)
inactive: erlotinib 0.245 | [1] 0.058 | [2] -0.146 | [3] 0.076 | [4] -0.111 | [6] 0.096

XRCC4 (UniProt Q13426)
inactive: erlotinib -0.027 | [1] -0.023 | [2] -0.003 | [3] -0.002 | [4] 0.013 | [5] -0.015 | [6] 0.014 | [7] 0.004 | [8] -0.01 | IRAK-1-4 Inhibitor I 0.022

XRCC1 (UniProt F5H8D7)
inactive: erlotinib 0.132 | [1] -0.138 | [2] 0.45 | [3] -0.095 | [4] 0.008 | [6] -0.255 | [7] 0.002 | [8] 0.183

ZBED5 (UniProt Q49AG3)
inactive: erlotinib -0.132 | [2] 0.041

ZG16B (UniProt Q96DA0)
inactive: erlotinib -0.974 | [2] -0.149 | [4] -1.46 | [5] -0.046 | [7] 0.082 | [8] -0.828 | IRAK-1-4 Inhibitor I -0.162

ZBTB8OS (UniProt Q8IWT0)
inactive: erlotinib -0.06 | [1] 0.031 | [2] -0.056 | [3] 0.01 | [4] 0.008 | [5] -0.019 | [6] 0.016 | [7] 0.05 | [8] 0.024 | IRAK-1-4 Inhibitor I -0.001

ZBTB2 (UniProt Q8N680)
inactive: erlotinib 0.105 | [1] -0.119 | [2] -0.051 | [3] -0.069 | [4] 0.113 | [5] -0.025 | [6] 0.016 | [7] -0.03 | [8] -0.034 | IRAK-1-4 Inhibitor I 0.086

YEATS4 (UniProt O95619)
inactive: erlotinib -0.017 | [1] -0.018 | [2] -0.018 | [3] 0.045 | [4] -0.079 | [5] -0.013 | [6] -0.027 | [7] 0.007 | [8] 0.034 | IRAK-1-4 Inhibitor I 0.002

ZEB2 (UniProt O60315)
inactive: erlotinib -0.055 | [1] -0.087 | [2] 0.014 | [3] -0.145 | [4] 0.095 | [5] -0.028 | [6] -0.017 | [7] -0.053 | [8] -0.055 | IRAK-1-4 Inhibitor I 0.049

XPNPEP3 (UniProt Q9NQH7)
inactive: erlotinib 0.011 | [1] -0.016 | [2] 0.006 | [3] 0.018 | [4] 0.019 | [5] -0.002 | [6] 0.017 | [7] -0.061 | [8] 0.058 | IRAK-1-4 Inhibitor I -0.001

ZBTB21 (UniProt Q9ULJ3)
inactive: erlotinib -0.073 | [1] 0.095 | [2] -0.127 | [3] 0.045 | [4] -0.104 | [5] 0.038 | [6] 0.041 | [7] -0.032 | [8] 0.098 | IRAK-1-4 Inhibitor I -0.014

ZCCHC4 (UniProt Q9H5U6)
inactive: [1] -0.096 | [3] 0.171 | [6] -0.024 | [7] -0.162 | [8] 0.107

YBX2 (UniProt Q9Y2T7)
inactive: [4] 0.037

ZDHHC4 (UniProt Q9NPG8)
inactive: erlotinib 0.048 | [2] 0.008 | [4] -0.02 | [5] -0.029 | IRAK-1-4 Inhibitor I 0.028

YIPF1 (UniProt Q9Y548)
inactive: [4] -0.114

Quoted at random: two entries already listed
YIPF1 (UniProt Q9Y548)
inactive: [4] -0.114

XRCC1 (UniProt F5H8D7)
inactive: erlotinib 0.132 | [1] -0.138 | [2] 0.45 | [3] -0.095 | [4] 0.008 | [6] -0.255 | [7] 0.002 | [8] 0.183

Next results.

YWHAZ (UniProt E7EX29)
inactive: [4] 0.135 | [7] -0.123 | [8] 0.053

ZCCHC10 (UniProt Q8TBK6)
inactive: [4] 0.134 | [5] -0.024 | [7] 0.206 | [8] 0.069 | IRAK-1-4 Inhibitor I 0.114

ZBTB7B isoform 2 (UniProt O15156)
inactive: [4] 0.218
